Results on one molecule are retold here after PMC12591160, “Polyadenylation Complex CFII Recognizes Downstream Cis‐element for Pre‐mRNA Polyadenylation Through Interaction with an RNA‐Binding Protein in Arabidopsis”.

These are yes or no findings as the source states them, for the method shown. In cells and extracts the contact can be indirect. Some binding calls cover weakened binding; strength is not graded here. Sequences can lack the tags named with a protein.

The assay deals with T1, CLPS3-FLAG of CLPS3-FLAGres transgenic Arabidopsis plants (Arabidopsis thaliana) (UniProt Q9SR06).
T1 sequence: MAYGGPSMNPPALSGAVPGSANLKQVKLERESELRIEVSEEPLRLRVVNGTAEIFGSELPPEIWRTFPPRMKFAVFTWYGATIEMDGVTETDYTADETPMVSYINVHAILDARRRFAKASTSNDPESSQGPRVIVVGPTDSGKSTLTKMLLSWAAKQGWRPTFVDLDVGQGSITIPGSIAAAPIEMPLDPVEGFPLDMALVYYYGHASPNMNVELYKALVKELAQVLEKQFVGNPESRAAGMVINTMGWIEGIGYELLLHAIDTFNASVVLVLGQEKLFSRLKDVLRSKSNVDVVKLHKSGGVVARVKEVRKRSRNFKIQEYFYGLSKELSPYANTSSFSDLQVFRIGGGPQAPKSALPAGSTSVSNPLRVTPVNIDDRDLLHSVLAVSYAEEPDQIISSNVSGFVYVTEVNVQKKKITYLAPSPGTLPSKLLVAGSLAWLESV
As to the kind of experiment: co-IP; total protein extracts from PCFS4-MYCres or PCFS4-MYCres/CLPS3-FLAGres Arabidopsis plants; immunoprecipitated with M2 magnetic beads; blots with the indicated antibodies.

B1: PCFS4-MYC of PCFS4-MYCres transgenic Arabidopsis plants (protein, UniProt Q0WPF2 1-808)
chain: MDSEKILNPRLVSINSTSRKGMSVELPQKPPPPPSLLDRFKALLNQREDEFGGGEEVLPPSMDEIVQLYEVVLGELTFNSKPIITDLTIIAGEQREHGEGIANAICTRILEAPVEQKLPSLYLLDSIVKNIGRDYGRYFSSRLPEVFCLAYRQAHPSLHPSMRHLFGTWSSVFPPPVLRKIDMQLQLSSAANQSSVGASEPSQPTRGIHVNPKYLRRLEPSAAENNLRGINSSARVYGQNSLGGYNDFEDQLESPSSLSSTPDGFTRRSNDGANPSNQAFNYGMGRATSRDDEHMEWRRKENLGQGNDHERPRALIDAYGVDTSKHVTINKPIRDMNGMHSKMVTPWQNTEEEEFDWEDMSPTLDRSRAGEFLRSSVPALGSVRARPRVGNTSDFHLDSDIKNGVSHQLRENWSLSQNYPHTSNRVDTRAGKDLKVLASSVGLVSSNSEFGAPPFDSIQDVNSRFGRALPDGTWPHLSARGPNSLPVPSAHLHHLANPGNAMSNRLQGKPLYRPENQVSQSHLNDMTQQNQMLVNYLPSSSAMAPRPMQSLLTHVSHGYPPHGSTIRPSLSIQGGEAMHPLSSGVLSQIGASNQPPGGAFSGLIGSLMAQGLISLNNQPAGQGPLGLEFDADMLKIRNESAISALYGDLPRQCTTCGLRFKCQEEHSKHMDWHVTKNRMSKNHKQNPSRKWFVSASMWLSGAEALGAEAVPGFLPTEPTTEKKDDEDMAVPADEDQTSCALCGEPFEDFYSDETEEWMYKGAVYMNAPEESTTDMDKSQLGPIVHAKCRPESNGGDMEEGSQRKKMRS
Turning to B1, the binding result is given as “binds”.
